Residue numbers refer to the chain shown, from its start. Names may count otherwise. No constants are given. Whether binding was seen depends on the method and setting. Some results given as binding are weak or reduced against the parent protein; the word gives no strength. For some of these results: Sequences can lack the tags named with a protein. Values belong to the molecule of their own block, whether it stands above or below them.
Tests used:
[1] = biological target: T1, Csm2-Psy3 heterodimer (S. cerevisiae) (UniProt P40465+Q12318); assay: pull-down; 25 μL Ni beads with 1 μM APE1 and 1 μM Csm2-Psy3; 20 mM Tris pH 8.0, 50 mM NaCl, 5 mM MgOAc2, 5% glycerol, 1 mM DTT, 2 mM ATP, 0.5 mg/mL BSA; overnight at 4 °C; SDS-PAGE; both purified
T1 sequence 1: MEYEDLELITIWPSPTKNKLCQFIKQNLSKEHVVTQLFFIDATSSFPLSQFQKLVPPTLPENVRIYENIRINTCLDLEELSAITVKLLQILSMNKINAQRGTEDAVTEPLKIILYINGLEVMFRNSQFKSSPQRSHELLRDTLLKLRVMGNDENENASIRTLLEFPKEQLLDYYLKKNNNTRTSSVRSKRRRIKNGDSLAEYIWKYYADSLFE
T1 sequence 2: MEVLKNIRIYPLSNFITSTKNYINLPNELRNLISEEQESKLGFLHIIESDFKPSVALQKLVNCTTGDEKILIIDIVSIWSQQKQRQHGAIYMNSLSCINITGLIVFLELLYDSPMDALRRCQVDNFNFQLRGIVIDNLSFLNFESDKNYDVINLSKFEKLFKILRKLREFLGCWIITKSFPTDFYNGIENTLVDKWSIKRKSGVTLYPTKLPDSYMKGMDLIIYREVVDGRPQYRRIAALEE

Chains of the proteins cited; added tags and fusions are not shown.
UniProt P27695: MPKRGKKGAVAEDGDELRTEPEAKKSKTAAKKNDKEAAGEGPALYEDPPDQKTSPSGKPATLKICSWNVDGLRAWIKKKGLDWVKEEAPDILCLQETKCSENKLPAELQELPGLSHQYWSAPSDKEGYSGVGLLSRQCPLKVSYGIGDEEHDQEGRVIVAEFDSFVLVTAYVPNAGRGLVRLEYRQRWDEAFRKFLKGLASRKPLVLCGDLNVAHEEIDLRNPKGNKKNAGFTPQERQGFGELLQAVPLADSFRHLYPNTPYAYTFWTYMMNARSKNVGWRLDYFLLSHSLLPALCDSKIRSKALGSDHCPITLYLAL

[2] = biological target: T2, 6XHIS-Shu1 (S. cerevisiae) (UniProt P38751); assay: SEC; SuperDex 200 in buffer with 150 mM KCl, after Ni-NTA and amylose resin; 6XHIS-Shu1 and MBP-Shu2 co-expressed in E. coli; both purified
T2 sequence: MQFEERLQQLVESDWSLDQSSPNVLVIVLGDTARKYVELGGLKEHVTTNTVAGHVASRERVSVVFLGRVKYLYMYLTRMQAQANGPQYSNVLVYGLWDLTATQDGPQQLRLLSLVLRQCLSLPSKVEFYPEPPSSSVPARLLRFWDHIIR

[3] = biological target: T3, Csm2-KRRR (Csm2-K189A/R190A/R191A/R192A, 6XHIS-TEV tagged) (S. cerevisiae) (UniProt P40465); assay: co-purification (nickel affinity chromatography); Csm2 and Psy3 co-expressed in E. coli; lysate on nickel resin, held by the N-terminal His6-tag on Csm2; 20 mM Tris pH 8.0, 500 mM NaCl, washes with 10, 15 and 20 mM imidazole, elution with 250 mM imidazole
T3 sequence: T1 sequence 1 with K189A, R190A, R191A, R192A

[4] = biological target: T4, Csm2 (6XHIS-TEV tagged, co-expressed with Psy3) (S. cerevisiae) (UniProt P40465); assay: as above
T4 sequence: T1 sequence 1

[5] = biological target: T3, Csm2-KRRR (Csm2-K189A/R190A/R191A/R192A, 6XHIS-TEV tagged) (S. cerevisiae); assay: SEC; Sephacryl S200; Tris pH 8.0, 1 M NaCl, 1 mM beta-mercaptoethanol, 8% glycerol; co-purified complex, peak checked by SDS-PAGE; both purified
[6] = biological target: T4, Csm2 (6XHIS-TEV tagged, co-expressed with Psy3) (S. cerevisiae); assay: as above

Molecule: human APE1 (from UniProt P27695 1-318) (enzyme)
binding [1]: no binding (tested: 1 μM of APE1 and 1 μM Csm2-Psy3)

binding [2]: binds
B1: MBP-Shu2 (protein, UniProt P38957 1-223)
chain: MSKDVIEYSKLFAKLVNTNDDTKLDDTIASFLYYMFPRELFIRAISLLESSDMFIYILDRVHNKEGNEHTSLIDVLVDEFYKGSSNSLLEYRLIVKDTNDGAPPILVDIAHWFCSCEEFCKYFHEALEKTDEKEELHDVLINEVDDHLQFSDDRFAQLDPHSLSKQWYFKFDKVCCSHLLAFSILLRSSINVLKFFTVNSNKVFVIAIDNIDEWLNLHINIVE

binding [3]: binds
binding [4]: binds
binding [5]: binds
binding [6]: binds
B2: Psy3 (co-expressed with His6-Csm2) (protein, UniProt Q12318 1-242)
chain: T1 sequence 2

binding [3]: binds
binding [4]: binds
binding [5]: binds
binding [6]: binds
B3: Psy3-KRK (Psy3-K199A/R200A/K201A) (protein, UniProt Q12318 1-242)
chain: T1 sequence 2 with K199A, R200A, K201A
